The list does not hold the whole screen: it gathers tests that were run many times, whatever their T/C, doses with no T/C, and many T/C values between a quarter and a half above the control. Other doses and runs of a compound stand elsewhere. T/C: endpoint of the treated group in % of that of the vehicle group. Some entries give survivors of the animals treated and no T/C: the source files T/C as zero there, which appears to mark a toxic dose or a test without result, not a measured value. Some survivor counts are full or nearly so, which does not show that the dose was tolerated: survival well below the control is almost never listed, so the zero probably covers shortened survival too. Counts of survivors are from the toxicity check (mostly the fifth day) where no day follows; animals may have died later. Schedule codes are those of the source, taken here to give the interval after Q, in days (D) or hours (H), and the number of doses after X. Some molecules as drawn cover several salts, stereoisomers or complexes of the source; a dose is that of the sample tested. Where survival is the endpoint, this PubChem deposit counts one and a half times the control or more as active, and values a quarter to a half above the control carry no call in these data; other NCI protocols may use other cut-offs.
Test system: BDF1 mice, B16 melanoma ip, median survival T/C
Assay: NCI In Vivo Anticancer Drug Screen. Data for tumor model B16 Melanoma (intraperitoneal) in B6D2F1 (BDF1) mice
Conditions: T/C endpoint: median survival time, higher T/C = longer survival
How it was run: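 In this screen, activity was judged from survival or tumor size in treated versus vehicle-treated tumor-bearing mice, reported as T/C.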

With `CN1CCN(c2ccc([N+](=O)[O-])c3no[n+]([O-])c23)CC1` the T/C (dose: 2.5 mg/kg/injection, schedule: Q01DX009 (ip), vehicle: saline with Tween-80) was 128 % of control, the survivor count (dose: 20.0 mg/kg/injection, schedule: Q01DX009 (ip), vehicle: saline with Tween-80) was 10 of 10 and the T/C (dose: 20.0 mg/kg/injection, schedule: Q01DX011 (ip), vehicle: saline with Tween-80) was 128 % of control. For the same compound, the survivor count (dose: 40.0 mg/kg/injection, schedule: Q01DX009 (ip), vehicle: saline with Tween-80) was 10 of 10 and the survivor count (dose: 80.0 mg/kg/injection, schedule: Q01DX009 (ip), vehicle: saline with Tween-80) was 3 of 10.

`Cc1cccc(N2CCN(CCC#N)CC2)c1` was tested, and the survivor count (dose: 100.0 mg/kg/injection, schedule: Q01DX009 (ip), vehicle: saline with Tween-80) was 10 of 10.

`O=c1[nH]c2c(ccc3cnccc32)c2c1CCC2` was tested, and the T/C (dose: 12.5 mg/kg/injection, schedule: Q01DX009 (ip), vehicle: suspension in saline) was 125 % of control, the T/C (dose: 25.0 mg/kg/injection, schedule: Q01DX009 (ip), vehicle: suspension in saline) was 125 % of control and the survivor count (dose: 50.0 mg/kg/injection, schedule: Q01DX009 (ip), vehicle: suspension in saline) was 8 of 10. For the same compound, the survivor count (dose: 100.0 mg/kg/injection, schedule: Q01DX009 (ip), vehicle: suspension in saline) was 5 of 10.

`CCC1CC2CN(CCc3c([nH]c4ccccc34)C(C(=O)OC)(c3cc4c(cc3OC)N(C)C3C(O)(C(=O)OC)C(OC(C)=O)C5(CC)C=CCN6CCC43C65)C2)C1` (stereo not given) was tested, and the T/C (dose: 0.1 mg/kg/injection, schedule: Q01DX009 (ip), vehicle: Klucel (hydroxypropylcellulose) (HPC)) was 133 % of control, the T/C (dose: 0.2 mg/kg/injection, schedule: Q01DX009 (ip), vehicle: Klucel (hydroxypropylcellulose) (HPC)) was 143 % of control and the T/C (dose: 0.25 mg/kg/injection, schedule: Q01DX009 (ip), vehicle: water, evaluated on day 45) was 130 % of control. The T/C (dose: 0.25 mg/kg/injection, schedule: Q01DX009 (ip), vehicle: water, evaluated on day 60) was 130 % of control, the T/C (dose: 0.25 mg/kg/injection, schedule: Q04DX003 (ip), vehicle: water) was 143 % of control and the T/C (dose: 0.5 mg/kg/injection, schedule: Q01DX009 (ip), vehicle: water, evaluated on day 45) was 131 % of control. The T/C (dose: 0.5 mg/kg/injection, schedule: Q01DX009 (ip), vehicle: water, evaluated on day 60) was 136 % of control, the survivor count (dose: 2.0 mg/kg/injection, schedule: Q01DX009 (ip), vehicle: water) was 10 of 10 and the survivor count (dose: 3.2 mg/kg/injection, schedule: Q01DX009 (ip), vehicle: Klucel (hydroxypropylcellulose) (HPC)) was 6 of 6. For the same compound, the survivor count (dose: 4.0 mg/kg/injection, schedule: Q01DX009 (ip), vehicle: water) was 9 of 10, the survivor count (dose: 4.0 mg/kg/injection, schedule: Q04DX003 (ip), vehicle: water) was 10 of 10 and the survivor count (dose: 6.4 mg/kg/injection, schedule: Q01DX009 (ip), vehicle: Klucel (hydroxypropylcellulose) (HPC)) was 6 of 6. The survivor count (dose: 12.8 mg/kg/injection, schedule: Q01DX009 (ip), vehicle: Klucel (hydroxypropylcellulose) (HPC)) was 2 of 6.

`CC(=O)NCc1cc(CNC(C)=O)c(C)cc1C` was tested, and the survivor count (dose: 400.0 mg/kg/injection, schedule: Q01DX009 (ip), vehicle: saline with Tween-80) was 10 of 10.

In the case of `O=NN(CCF)C(=O)NC1CCC(NC(=O)N(CCF)N=O)CC1` (stereo not given), the T/C (dose: 6.25 mg/kg/injection, schedule: Q01DX009 (ip), vehicle: saline with Tween-80) was 138 % of control and the survivor count (dose: 37.5 mg/kg/injection, schedule: Q01DX009 (ip), vehicle: saline) was 10 of 10.

For `NC(=O)c1cn(C2OC(CO)C(O)C2O)c2ncnc(N)c12` (stereo not given), the survivor count (dose: 0.5 mg/kg/injection, schedule: Q01DX009 (ip), vehicle: water) was 6 of 6, the survivor count (dose: 1.0 mg/kg/injection, schedule: Q01DX009 (ip), vehicle: saline) was 6 of 6 and the survivor count (dose: 1.0 mg/kg/injection, schedule: Q01DX009 (ip), vehicle: water) was 5 of 6. The survivor count (dose: 1.5 mg/kg/injection, schedule: Q01DX009 (ip), vehicle: saline) was 12 of 12, the survivor count (dose: 2.0 mg/kg/injection, schedule: Q01DX009 (ip), vehicle: saline) was 6 of 6 and the survivor count (dose: 4.0 mg/kg/injection, schedule: Q01DX009 (ip), vehicle: saline) was 6 of 6. The survivor count (dose: 8.0 mg/kg/injection, schedule: Q01DX009 (ip), vehicle: saline) was 0 of 6.

For `CCC[CH2][Sn-]([CH2]CCC)([CH2]CCC)[O]C(=O)C(C)C`, the T/C (dose: 0.37 mg/kg/injection, schedule: Q01DX009 (ip), vehicle: saline with Tween-80) was 138 % of control, the T/C (dose: 0.75 mg/kg/injection, schedule: Q01DX009 (ip), vehicle: saline with Tween-80) was 127 % of control and the T/C (dose: 1.5 mg/kg/injection, schedule: Q01DX009 (ip), vehicle: saline with Tween-80) was 131 % of control. For the same compound, the survivor count (dose: 3.0 mg/kg/injection, schedule: Q01DX009 (ip), vehicle: saline with Tween-80) was 2 of 10.

In the case of `COc1cc(C(C)(C)C)cc(OC)c1C(O)(c1c(OC)cc(C(C)(C)C)cc1OC)c1c(OC)cc(C(C)(C)C)cc1OC`, the survivor count (dose: 200.0 mg/kg/injection, schedule: Q01DX009 (ip), vehicle: saline with Tween-80) was 3 of 10.

For `COc1cc2cc(c1Cl)N(C)C(=O)CC(OC(=O)C(C)N(C)C(=O)C(C)C)C1(C)OC1C(C)C1CC(O)(NC(=O)O1)C(OC)/C=C/C=C(C)C2` (stereo not given), the T/C (dose: 1.3 micrograms/kg/injection, schedule: Q01DX009 (ip), vehicle: saline + alcohol) was 126 % of control and the T/C (dose: 2.5 micrograms/kg/injection, schedule: Q01DX009 (ip), vehicle: saline + alcohol) was 145 % of control.

`CC(C)(C)C1CC(C(F)(F)F)(C(F)(F)F)OS(=O)O1` (stereo not given) was tested, and the survivor count (dose: 12.5 mg/kg/injection, schedule: Q04DX003 (ip), vehicle: saline with Tween-80) was 10 of 10, the survivor count (dose: 25.0 mg/kg/injection, schedule: Q04DX003 (ip), vehicle: saline with Tween-80) was 10 of 10 and the survivor count (dose: 50.0 mg/kg/injection, schedule: Q04DX003 (ip), vehicle: saline with Tween-80) was 10 of 10.

`CCCCOC(=O)C(C)OC(=O)CCC` (stereo not given) was tested, and the T/C (dose: 100.0 mg/kg/injection, schedule: Q01DX009 (ip), vehicle: Klucel (hydroxypropylcellulose) (HPC)) was 143 % of control and the T/C (dose: 400.0 mg/kg/injection, schedule: Q01DX009 (ip), vehicle: Klucel (hydroxypropylcellulose) (HPC)) was 132 % of control.

From PubChem BioAssay AID192 (DTP/NCI, 2004)
